{"source": "patent US5037822A", "about": "“1-arylsulphonyl-2-pyrrolidinethione or 1-arylsulphonyl-2-piperidinethione derivatives, process for the preparation thereof their application as medicinal products and compositions containing them” (Roussel-Uclaf, priority 1989, dated 1991)", "tested_on": "isolated guinea pig ileum, contractions induced by histamine", "assay": "Antagonist action on histamine-induced contractions of isolated guinea pig ileum", "assay_type": "cell-based", "details": "Cavia porcellus, read-out: Antagonist to Histam., IC50", "method": "The interaction of the compounds with different receptors was assessed on isolated guinea pig ileum according to the following method.\nGuinea pig ileum segments measuring 2.5-3 cm were washed and immediately suspended in a bath containing 10 ml of Tyrode's solution at 37° C. aerated with a mixture of oxygen (95%) and carbon dioxide (5%). After a stabilization period of at least 30 minutes, the contractions were recorded, maintaining the preparation under constant tension of 1 g using a gauge connected to a polygraph. The agonist action was assessed by leaving the compound in contact with the isolated tissue for a period necessary for expressing the maximal contraction; the preparation was then washed with Tyrode's solution. The next dose was added to the bath only after the preparation had returned to its base line. As a reference product, arecoline was employed. The antagonist action was assessed on contractions induced by acetylchloine (1×10^-6 M), histamine (1×10^-5 M) and barium chloride (2×10^-4 M). Atropine, diphenhydramine and papaverine were employed as reference products. The contact time before adding the agonist was one minute.\nFor each compound, the dose-response curves are obtained with 4 to 6 different concentrations and 3 to 5 independent tests. The agonist activity is expressed by pD2 (negative logarithm of the dose which produces 50% of the maximum effect). […]"}
{"smiles": "CN(C)CCOC(c1ccccc1)c1ccccc1", "note": "[Diphenhydramine, diphenhydramine, reference compound]", "values": [{"measurement": "IC50", "value": 830, "unit": "nM"}]}
